This assay addresses GST-RBD (amino acids 1-149 of Raf-1, Ras-binding domain, fused to GST) (UniProt P04049). The assay is described as follows: pull-down; yeast whole cell extract incubated with GST-RBD-bound glutathione beads for 4 h, washed, eluted with sample buffer, immunoblot with anti-Ras2; cells grown in YPD with or without caspofungin (2 h), or glucose-starved (SC-D, 2 h); ras2Δ strain as control; only the target purified.

No constants are given. Whether binding was seen depends on the method and setting. In cells and extracts the contact can be indirect. Some entries that bind do so weakly or less than the wild type.

B1: Ras2 (small GTPase), active GTP-bound form (Ras2-GTP) (protein, UniProt P01120 1-322)
chain: MPLNKSNIREYKLVVVGGGGVGKSALTIQLTQSHFVDEYDPTIEDSYRKQVVIDDEVSILDILDTAGQEEYSAMREQYMRNGEGFLLVYSITSKSSLDELMTYYQQILRVKDTDYVPIVVVGNKSDLENEKQVSYQDGLNMAKQMNAPFLETSAKQAINVEEAFYTLARLVRDEGGKYNKTLTENDNSKQTSQDTKGSGANSVPRNSGGHRKMSNAANGKNVNSSTTVVNARNASIESKTGLAGNQATNGKTQTDRTNIDNSTGQAGQANAQSANTVNNRVNNNSKAGQVSNAKQARKQQAAPGGNTSEASKSGSGGCCIIS
For the molecule B1, the binding result is “binds”.

The values above are taken from paper PMC5515849.
